Legend:
[1] = molecular target: T1, Stromelysin (Homo sapiens, UniProt P08254); assay: Stromelysin rate assay at 25° C.; format: biochemical; details: read-out: Kd measured by a rate assay
T1 construct: made in house
Source text: Two parameters derived from the fluorescence kinetic curves measure the rate of denaturation, namely, the slope at the inflection point, and the first-order rate constant. The values of both parameters decreased in the presence of inhibitors in a saturable, dose-dependent manner, as shown in FIG. 11 for the case of fluorescence measurements. The concentration dependencies were consistent with a model where binding of the inhibitor results in a drastic decrease in the rate of denaturation.

Protein sequences, listed by entry. Tags and fused reporters are not part of them. Residues count along the entry.
UniProt P08254, 100-264 limits assumed: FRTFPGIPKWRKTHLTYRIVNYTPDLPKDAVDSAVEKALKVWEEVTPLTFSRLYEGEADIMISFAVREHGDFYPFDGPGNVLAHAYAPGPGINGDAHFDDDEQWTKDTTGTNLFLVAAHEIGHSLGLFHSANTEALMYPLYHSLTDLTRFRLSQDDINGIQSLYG

[2] = molecular target: T1, Stromelysin; assay: Isothermal denaturation of stromelysin monitored by SYPRO Orange fluorescence; details: 75° C., simple Langmuir binding isotherm
Procedure: FIG. 10A. Time-Dependency of the isothermal denaturation of Stromelysin monitored by SYPRO Orange Fluorescence. The time-dependency of stromelysin isothermal denaturation at 75° C. with or without the addition of the competitive inhibitor PNU-143988 was followed by the increase in SYPRO Orange fluorescence as described in Examples. The data for the control reaction were analyzed using Equation 4, and those for the inhibited reactions with Equation 11. Representative data in the presence of 1.5 and 5 mM PNU-143988 are also shown. The solid lines represent the theoretical fits to the experimental data points.
FIGS. 11A-11B. Effect of PNU-143988 on the Initial Rates and the Rate Constants of the Isothermal Denaturation of Stromelysin Monitored by SYPRO Orange. The time-dependency of stromelysin isothermal denaturation at 75° C. with or without the addition of the competitive inhibitor PNU-143988 was followed by the increase in SYPRO Orange fluorescence as described in the Methods. […]
The time-dependencies of the fluorescence of extrinsic dyes during isothermal denaturation were monitored as follows. […] A dye baseline was recorded for 45 seconds and the denaturation reaction initiated by the addition of a small aliquot of the protein stock solution. […] In the latter experiments, the fluorescence increase associated with the addition of dye was always instantaneous.
Fluorescence. […]

Kd [1]: 400 nM | Kd ([2]; read-out: Kd from the initial rates): 280 ± 20 nM | Kd ([2]; read-out: Kd from the rate constants): 350 ± 130 nM
SMILES: CNC(=O)[C@H](Cc1ccc(O)cc1)NC(=O)Nc1nnc(S)s1 [PNU-143988]
